Results are given in words; binding and its absence hold for the method and conditions named. Some results given as binding are weak or reduced against the parent protein; the word gives no strength.
T1: Ofd1 (S. pombe) (UniProt Q11120)
T1 sequence: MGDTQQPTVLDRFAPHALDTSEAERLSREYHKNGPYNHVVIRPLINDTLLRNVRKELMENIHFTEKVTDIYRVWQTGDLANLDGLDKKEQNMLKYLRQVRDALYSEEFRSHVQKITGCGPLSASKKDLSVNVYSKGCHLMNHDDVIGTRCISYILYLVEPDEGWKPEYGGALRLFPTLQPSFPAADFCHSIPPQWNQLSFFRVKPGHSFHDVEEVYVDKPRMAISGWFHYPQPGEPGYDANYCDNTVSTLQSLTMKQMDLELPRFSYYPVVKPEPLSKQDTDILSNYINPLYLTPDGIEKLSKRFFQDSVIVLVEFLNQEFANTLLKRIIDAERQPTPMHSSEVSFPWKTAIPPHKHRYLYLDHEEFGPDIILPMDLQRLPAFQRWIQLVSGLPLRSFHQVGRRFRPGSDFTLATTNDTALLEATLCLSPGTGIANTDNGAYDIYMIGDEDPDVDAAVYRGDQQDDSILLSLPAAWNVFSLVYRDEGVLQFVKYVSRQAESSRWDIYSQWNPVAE

Sequences of proteins named here, by UniProt entry; tags and fusion partners are left off. Residues count along the entry.
UniProt Q5AL36, residues 173-244: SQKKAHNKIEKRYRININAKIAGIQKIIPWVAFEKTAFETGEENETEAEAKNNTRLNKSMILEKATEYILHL

B1: Tif35 (eIF3g) (protein, UniProt P78795 1-282)
chain: MSSSKSLDWADDEDYGTGLPSIQTFDNPDGTKTMIEFRIDDNGKKVKVTRVIRKTVITERVQHAVAERKKWKKFGKEAGKNSGVDARTTSVGENVQLRLQLGWTTTKEEEQDEAALAAAKVKAKGSSVVRCRACKGNHFTAQCPYKSIIGPVDEPPLDASPVSSRASGALGEKGRYIAPHLRAGSGRESGDSMFKRERDDSATLRVTNLSDDTREEELRDLFRRFGGIQRVYLAKDKETGRAKGFAFVSYYDRDCAIKARDRLDGYGWNNLILRCEFSKPRD
B2: Sum1 (eIF3i) (protein, UniProt P79083 1-328)
chain: MRPIILQGHERPLTQIKYNHDGDLLFSCAKDKVINVWFSHNGERLGTYEGHTGAIWTCDINKSSTLMVSGAADNTMRLWDVKTGKQLYKWEFPTAVKRVEFNEDDTRILAVTEERMGYAGTVTVFRVPISESDAAAETPLYVITTRESKATVAGWSYLSKFLFTGHEDGSVSRYDAITGEFVESKQVHNSGSTITDLQFYPDRTYFITSCKDTTAKAIDVDSFEVIKTYLTDTPLNTSSFTPVQDFVILGGGQEARDVTTTAARQGKFEARFYHAILEEELGRVKGHFGPINTIAVHPKGTGYASGGEDGYVRVHFFDKNYFDFKYTL
B3: Fin1 (enzyme, UniProt O13839 1-722)
chain: MEKYKILECIGHGSFGRIYKVQRLKDGALLAQKEIHFGNITRQEKQYIADEVNILRNLKHPNIVQYCGEELNRSAQVINLYMEYCGHGDLANLIQRYKEEKKRFTEQEVLKFFTQLLLALYRCHYGENAPACDSQWPREIFHPKQSVLHRDIKPANIFLDENNSVKLGDFGLSKLLDNTRVFTQSYVGTPYYMSPEIIRSSPYSAKSDVWALGCVIFEICMLTHPFEGRSYLELQRNICQGNLSCWDHHYSDDVFLLIRHCLEVNSDLRPTTYQLLRSPILSDIRSKLESERVVLEQSDLLHKKHQMLIQLENDLQFREQRLSARESELENVIASRLAQREEILRRELEKQLRDMDARYQRHMQTVVNSMQKMRVTSPVDHNEQPESSTAEMFVDCTIEASQSPLLHIPKLGISKPLQTLSCPGFTLTTQQPILKRPTLRKELSSRALHTTATLMKYRANASSLRTTPIDKDGQITSLQQKNGTSNQVADCMNKLLHTSLDGKKLSPSELCNKFSDGEGLPNRKVSKLSVESDETAVSASSGESVPTDSTLTDTKSKSVFVHPPSPQSLYVEKLEKLNIRSDEVSKPSKASKTLHGYALPSLASPYDVHAEEKIARENEMDGNFKTMKINQHPDEYVLRTPKKIQLLEGQKRSPVKQLGRLGYNKLRRSAMDNAGLELRKAASTSNYTSLQSRTLPGSWRDDEEEIPRPFLRKMLDARMMRA
B4: Isa2 (protein, UniProt O43045 1-205)
chain: MLMKSRVNLLFKGPFFFRERCFQTLLNPVIAIRQLSHGSLRNSRSCRIDAKSNTLTKEIFPKINNEFKIKNRFYSSKLANDQFTLQEQCDEKGIPFILYVKDSAKKQLEKIAERKPEENSVLRVTVDGGGCHGYQVSFRMDNKIGNADTVFVRGKARVVADNISLPLISGSEIEYTNELIGSSFQLLNNPRAKTSCGCNVSFDVE
B5: Pdb1 (enzyme, UniProt Q09171 1-366)
chain: MIRLQKFGEIVGTSRSWKLLSSTIAKRYSSSSNGVKEMTVRDALNSAMEEEMKRDDRVFLIGEEVAQYNGAYKISRGLLDKFGPKRVIDTPITEMGFTGLATGAAFAGLRPICEFMTFNFSMQAIDHIVNSAARTLYMSGGIQACPIVFRGPNGPAAAVAAQHSQHFAPWYGSIPGLKVVSPYSAEDARGLLKAAIRDPNPVVVLENEILYGKTFPISKEALSEDFVLPFGLAKVERPGKDITIVGESISVVTALEAADKLKADYGVEAEVINLRSIRPLDINTIAASVKKTNRIVTVDQAYSQHGIGSEIAAQIMESDAFDYLDAPVERVSMADVPMPYSHPVEAASVPNADVVVAAAKKCLYIK
B6: Rps20 (protein, UniProt O74893 1-118)
chain: MSQVAKDQKEQQIPSTVHRIRITLTSRNVRNLEKVCSDLVNRAKDKQLRVKGPVRLPTKILKITTRKTPNGEGSKTWETYEMRIHKRLIDLHSPSEIVKQITSIHIEPGVEVEVTIAQ
B7: bHLH domain of Hms1 of S. cerevisiae (domain or fragment, UniProt Q12398 266-341)
chain: TGRVSHNIIEKKYRSNINDKIEQLRRTVPTLRVAYKKCNDLPITSRDLADLDGLEPATKLNKASILTKSIEYICHL
B8: bHLH domain of Tye7 of S. cerevisiae (domain or fragment, UniProt P33122 180-265)
chain: FQKQAHNKIEKRYRININTKIARLQQIIPWVASEQTAFEVGDSVKKQDEDGAETAATTPLPSAAATSTKLNKSMILEKAVDYILYL

biological target: T1, Ofd1 (S. pombe); assay: two-hybrid

Question: B1 was tested. Which binding did it give?
Answer: The binding was “binds”.

Question: Which binding does the source give for B2 here?
Answer: The binding was “binds”.

Question: B3 was tested. Which binding did it give?
Answer: Its binding is “binds”.

Question: How did the binding turn out when B4 was run?
Answer: Its binding is “binds”.

Question: How did the binding turn out when B5 was run?
Answer: Its binding is “binds”.

Question: With B6 as the molecule, how does the binding read?
Answer: The binding was “binds”.

Question: With B7 as the molecule, how does the binding read?
Answer: Its binding is “binds”.

Question: Which binding does the source give for B8 here?
Answer: The binding was “binds”.

biological target: T1, Ofd1 (S. pombe); assay: two-hybrid; remark: another data set of the same source

Question: How did the binding turn out when “bHLH domain of Tye7 of C. albicans (from UniProt Q5AL36 173-244) (domain or fragment)” was run?
Answer: Its binding is “binds”.

— paper doi:10.1101/363747
